At least one structure is not confirmed: it was looked up by name or label, or the drawing left a doubt.
Test system: Treg cells (CD4+CD25highFoxP3+)
Assay: Antigen-specific tolerogenic dendritic cells (tDC) activity on Treg cell development
Format: cell-based, OTII mice
Protocol: The assay included the use of OTII mice which have a transgenic T cell receptor specific for an immune-dominant ovalbumin peptide (323-339). In order to create antigen-specific tDCs, CD11c^+ splenocytes were isolated, and the ovalbumin peptide (323-339) added in vitro at 1 μg/ml or no antigen. Soluble or nanocarrier-encapsulated rapamycin was then added to the DCs for 2 hours which were then washed extensively to remove free rapamycin from the culture. Purified responder CD4^+CD25^− cells were isolated from OTII mice and added to tDC at a 10:1 T to DC ratio. The mixture of tDC and OTII T cells were then cultured for 4-5 days, and the frequency of Treg cells (CD4^+CD25highFoxP3^+) were analyzed by flow cytometry as shown in FIG. 1. Regions were selected based on isotype controls.
Free rapamycin or synthetic nanocarriers containing rapamycin were combined with free soluble Ovalbumin (323-339) to evaluate induction of tDC (FIG. 2). […] Briefly, antigen specific tDC were obtained by isolating dendritic cells (CD11c^+ splenocytes) and culturing them in combination with the Ovalbumin (323-339) peptide plus soluble or nanocarrier encapsulated rapamycin (Synthetic Nanocarrier #s 13, 14, 15 and 16) for 2 hours followed by extensive washing. […] The mixture of tDC and OTII T cells were then cultured for 4-5 days, and the frequency of Treg cells (CD4^+CD25highFoxP3^+) were analyzed by flow cytometry.

CO[C@H]1C[C@@H]2CC[C@@H](C)[C@@](O)(O2)C(=O)C(=O)N2CCCC[C@H]2C(=O)O[C@H]([C@H](C)C[C@@H]2CC[C@@H](O)[C@H](OC)C2)CC(=O)[C@H](C)/C=C(\C)[C@@H](O)[C@@H](OC)C(=O)[C@H](C)C[C@H](C)/C=C/C=C/C=C/1C [rapamycin] was tested, and the “number of CD4+CD25highFoxP3+ cells” value (FIG. 1, DCs treated with free rapamycin and free Ovalbumin (323-339)) was “increase” and the “CD4+CD25highFoxP3+ (frequency of Treg cells)” value (FIG. 2, combined with free soluble Ovalbumin (323-339), DCs treated 2 hours) was “dose dependent increase”.

Reference: patent publication US11235057B2, “Methods for providing polymeric synthetic nanocarriers for generating antigen-specific tolerance immune responses” (Selecta Biosciences, Inc., priority 2011, dated 2022)
